Data: the supplement of paper PMC10735217
Some of the results follow. Repeats in this data set agree poorly, so a single value says little.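 In a drug-repurposing library screen, luminescence reads luciferase driven by eight TEAD-binding elements, stably integrated into human kidney-derived cells. Compounds scoring over five robust Z scores above the plate mean are called hits.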

Tested on: HEK293A TEAD-LUC reporter
Test: TEAD-luciferase reporter activity (YAP activation), robust Z score vs plate; higher = stronger YAP/TEAD activation
Settings: 24 h

SMILES | TEAD-luciferase reporter activity (compound concentration: 200 nM) | TEAD-luciferase reporter activity (compound concentration: 2 uM) | TEAD-luciferase reporter activity (compound concentration: 10 uM)
Cc1ccc(C2(O)CCN(CCCC(=O)c3ccc(F)cc3)CC2)cc1 | active: 5.12 | inactive: -1.44 | inactive: -0.241
Cc1ccc2c(c1)-c1nc(-c3cccnc3)[nH]c1CCC2 | inactive: -0.575 | inactive: 0.721 | inactive: 0.643
O=C(CCc1ccncc1)Nc1cc(N2CCOC2=O)ccc1F | inactive: -1.09 | inactive: 1.12 | inactive: 0.0771
NC[C@H](O)c1ccc(O)c(O)c1 [(-)-Norepinephrine] | inactive: -0.762 | – | inactive: -0.784
NC[C@H](O)c1ccc(O)c(O)c1 [Noradrenaline] | – | inactive: -1.45 | –
C[C@H](NC(=O)[C@@H](Cc1ccc2ccccc2c1)NC(=O)[C@@H](C)N)C(=O)N[C@@H](Cc1c[nH]c2ccccc12)C(=O)N[C@H](Cc1ccccc1)C(=O)N[C@@H](CCCCN)C(N)=O [Pralmorelin] | inactive: 0.0135 | inactive: -0.866 | inactive: 0.585
COc1ccc(-n2cc(C(=O)N3CCCC(C)C3)ccc2=O)cc1 (stereo not drawn) | inactive: -0.51 | inactive: 1.39 | inactive: -0.474
CC1CCc2c(N3CCN(C)CC3)c(F)cc3c(=O)c(C(=O)O)cn1c23 (stereo not drawn) | inactive: -2.29 | inactive: -1.22 | inactive: 1.02
CCc1nc2c(C)cc(C)nc2n1Cc1ccc2nc(-c3ccccc3C(=O)OC)ccc2c1 | inactive: -1.02 | inactive: -0.273 | inactive: -1.96
O=S(=O)(O)c1cc(O)ccc1O [Ethamsylate] | inactive: -1.67 | – | inactive: 0.141
O=S(=O)(O)c1cc(O)ccc1O [Calcium dobesilate] | – | inactive: -0.431 | –
C#C[C@@]1(CO)C=C[C@H](n2cc(C)c(=O)[nH]c2=O)O1 | inactive: 0.731 | – | inactive: 1.12
Oc1nc(O)c(Cc2ccc3cc(OCc4ccccc4F)ccc3c2)s1 [netoglitazone] | inactive: -0.757 | inactive: 1.32 | active: 6.46
CCNC1CC(N)C(OC2OC(CN)=CCC2N)C(O)C1OC1OCC(C)(O)C(NC)C1O (stereo not drawn) [netilmicin] | – | inactive: -0.949 | inactive: -1.69
COc1ccc(-c2cnn(CC(C)=O)c(=O)n2)cc1 | inactive: -1.83 | inactive: -0.861 | inactive: 0.153
CCC1OC(=O)CC(O)C(C)C(OC2OC(C)CC(N(C)C)C2O)C(CC=O)CC(C)C(=O)/C=C/C2(C)OC2C1C (stereo not drawn) [rosaramicin] | inactive: -0.729 | inactive: -0.783 | inactive: 1.3
CC[C@H]1[C@@H](O)[C@@H]2[C@H](CC[C@]3(C)[C@@H]([C@H](C)CCC(=O)O)CC[C@@H]23)[C@@]2(C)CC[C@@H](O)C[C@@H]12 | inactive: -0.773 | – | inactive: -1.02
CC[C@H]1[C@@H](O)[C@@H]2[C@H](CC[C@]3(C)[C@@H]([C@H](C)CCC(=O)O)CC[C@@H]23)[C@@]2(C)CC[C@@H](O)C[C@@H]12 [Obeticholic acid] | – | inactive: 0.135 | –
CCOc1cc(CC(=O)N[C@@H](CC(C)C)c2ccccc2N2CCCCC2)ccc1C(=O)O | inactive: -0.661 | – | inactive: -0.838
CCOc1cc(CC(=O)N[C@@H](CC(C)C)c2ccccc2N2CCCCC2)ccc1C(=O)O [repaglinide] | – | inactive: -0.771 | –
Cc1occc1C(=S)Nc1ccc(Cl)c(/C=N/OC(C)(C)C)c1 | inactive: 0.385 | inactive: -0.907 | active: 6.44
O=C(O)c1cn(C2CC2)c2cc(N3CCC(O)(COc4ccc(N5C[C@H](CO)OC5=O)cc4F)CC3)c(F)cc2c1=O [Cadazolid] | inactive: -1.04 | inactive: -1.14 | inactive: 2.66
COc1ccc(CC(=O)N2CCCC3(Cc4ccccc4CN3C(C)=O)C2)cc1 (stereo not drawn) | inactive: -0.795 | – | inactive: -0.197
O=C(NCCNC(=O)c1ccccn1)c1ccc(-c2cccc(C(F)(F)F)c2)cc1 | inactive: -0.894 | – | inactive: -1.14
O=C1CC(c2ccccc2)Oc2cc(O)cc(O)c21 (stereo not drawn) [Pinocembrin] | inactive: 0.948 | inactive: -0.405 | inactive: -1.42
C[C@H](CC(=O)O)[C@H]1CC[C@H]2[C@@H]3[C@@H](O)C[C@@H]4C[C@H](O)CCC4(C)[C@H]3CCC12C (stereo partly drawn) [24-norUrsodeoxycholic acid] | inactive: -0.889 | inactive: 1.51 | inactive: -1.5
CCOC(=O)C1=CC2(CC)CCCN3CCc4c(n1c1ccccc41)C32 (stereo not drawn) [vinpocetine] | inactive: -0.35 | inactive: -0.628 | active: 5.34
CN(C)CCOC(=O)C1Oc2ccccc2-c2ccccc21 (stereo not drawn) | inactive: -0.26 | inactive: -0.0554 | inactive: 1.78

2 entries drawn at random from the list so far:
SMILES | TEAD-luciferase reporter activity (compound concentration: 200 nM) | TEAD-luciferase reporter activity (compound concentration: 2 uM) | TEAD-luciferase reporter activity (compound concentration: 10 uM)
C#C[C@@]1(CO)C=C[C@H](n2cc(C)c(=O)[nH]c2=O)O1 | inactive: 0.731 | – | inactive: 1.12
CCOC(=O)C1=CC2(CC)CCCN3CCc4c(n1c1ccccc41)C32 (stereo not drawn) [vinpocetine] | inactive: -0.35 | inactive: -0.628 | active: 5.34
